# According to article PMC7746336:
# Amino acid sequences for entries named in this document (tags omitted).
# UniProt Q14694: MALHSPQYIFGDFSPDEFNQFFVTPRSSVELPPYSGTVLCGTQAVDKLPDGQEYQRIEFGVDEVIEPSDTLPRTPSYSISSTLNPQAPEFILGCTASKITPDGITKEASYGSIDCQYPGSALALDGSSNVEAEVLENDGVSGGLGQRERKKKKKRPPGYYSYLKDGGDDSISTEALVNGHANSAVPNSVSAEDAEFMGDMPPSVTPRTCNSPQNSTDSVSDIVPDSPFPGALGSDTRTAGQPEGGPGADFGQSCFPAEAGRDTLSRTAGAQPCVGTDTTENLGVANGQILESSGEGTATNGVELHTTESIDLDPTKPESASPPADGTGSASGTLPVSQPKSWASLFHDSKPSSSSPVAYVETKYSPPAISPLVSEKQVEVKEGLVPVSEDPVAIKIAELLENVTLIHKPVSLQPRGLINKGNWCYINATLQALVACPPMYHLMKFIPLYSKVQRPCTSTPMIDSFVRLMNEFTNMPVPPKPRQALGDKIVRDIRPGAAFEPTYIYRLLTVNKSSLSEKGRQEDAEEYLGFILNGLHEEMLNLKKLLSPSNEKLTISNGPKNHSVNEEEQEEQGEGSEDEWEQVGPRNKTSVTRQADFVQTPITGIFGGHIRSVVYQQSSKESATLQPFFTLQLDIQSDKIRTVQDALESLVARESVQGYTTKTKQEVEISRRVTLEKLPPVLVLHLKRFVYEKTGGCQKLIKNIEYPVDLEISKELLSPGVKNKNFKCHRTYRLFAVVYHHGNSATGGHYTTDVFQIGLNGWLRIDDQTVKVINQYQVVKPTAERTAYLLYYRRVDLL
# UniProt P16671: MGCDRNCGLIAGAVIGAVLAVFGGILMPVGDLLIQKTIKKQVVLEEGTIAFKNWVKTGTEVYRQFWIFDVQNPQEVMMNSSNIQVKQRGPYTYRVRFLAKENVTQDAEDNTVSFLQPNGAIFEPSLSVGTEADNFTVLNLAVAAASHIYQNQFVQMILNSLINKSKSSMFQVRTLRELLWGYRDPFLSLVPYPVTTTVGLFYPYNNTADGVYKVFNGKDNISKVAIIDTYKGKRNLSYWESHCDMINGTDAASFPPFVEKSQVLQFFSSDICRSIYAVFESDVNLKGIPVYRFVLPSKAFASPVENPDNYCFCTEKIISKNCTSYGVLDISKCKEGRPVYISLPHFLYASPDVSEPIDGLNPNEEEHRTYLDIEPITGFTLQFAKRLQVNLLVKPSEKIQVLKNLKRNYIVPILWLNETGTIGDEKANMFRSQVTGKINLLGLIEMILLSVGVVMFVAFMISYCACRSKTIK
# These are yes or no findings as the source states them, for the method shown. Binding seen in cells or lysates may run through a third protein. Some binding calls cover weakened binding; strength is not graded here.
# Biological target: Ubiquitin-specific peptidase 10 (human (endogenous in THP1)) (UniProt Q14694)
# Assay: co-IP; THP1 lysates reacted with antibody (anti-CD36 or anti-USP10) and dynabeads for 1-2 h, washed three times with PBS-T, immunoblot for the other protein
substance,measurement,value
CD36 (from UniProt P16671 1-472) (receptor),binding,binds
